Data taken from publication PMC7360063, “Brassinosteroids regulate root meristem development by mediating BIN2-UPB1 module in Arabidopsis” (PLoS Genetics, 2020).
These are yes or no findings as the source states them, for the method shown. For some assays here: Binding seen in cells or lysates may run through a third protein. For some assays here: Sequences can lack the tags named with a protein. One block for each molecule: values may come before it.

Tests used:
UPB1-cYFP (Arabidopsis) = target: T1, UPB1-cYFP (Arabidopsis) (UniProt O22901); assay: split reporter; BiFC: partner-nYFP (pXY103) and UPB1-cYFP (pXY104) co-transformed into N. benthamiana leaves; YFP fluorescence by microscopy
T1 sequence: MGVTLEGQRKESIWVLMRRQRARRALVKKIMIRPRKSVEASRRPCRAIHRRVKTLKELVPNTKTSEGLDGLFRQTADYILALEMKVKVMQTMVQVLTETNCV

[1] = target: BIL1 in pGBKT7 (Arabidopsis); assay: two-hybrid; Matchmaker GAL4 system, yeast AH109; UPB1 in pGADT7, BIN2, BIL1, BIL2 or BES1 in pGBKT7; growth on SD/-Leu-Trp-His

- binding (UPB1-cYFP (Arabidopsis)): no binding
Molecule: BIL1-nYFP (Arabidopsis) (enzyme)

- binding [1]: no binding
B1: His-SUMO-UPB1 (natural protein, Arabidopsis, UniProt O22901 1-102, looked up)
chain: T1 sequence
notes: UPB1, Arabidopsis, At2g47270; The phosphorylation methods speak of a 6x His tag; source: E. coli, purified
